Measured values taken from the supplement of paper PMC12823440, “Inhibitors supercharge kinase turnover through native proteolytic circuits” (Nature, 2025).
Structures can show the parent of a compound that is named as a salt. The list shows a part of the results. The calls rarely recur for the same compound in another form.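 In K562 cells expressing nanoluciferase-fused kinases, luminescence was recorded at 4 h intervals between 2 and 18 h, normalized as percent of control with DMSO at 100% and a positive control at 0%. A significant (2 sigma) signal drop marks a time point as decreased. The authors' rule for a hit is not shown and takes in more than the number of time points.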

Sequences of proteins named here, by UniProt entry; tags and fusion partners are left off. A change or cut given only in a name is not applied to a line headed by its entry.
UniProt O15530: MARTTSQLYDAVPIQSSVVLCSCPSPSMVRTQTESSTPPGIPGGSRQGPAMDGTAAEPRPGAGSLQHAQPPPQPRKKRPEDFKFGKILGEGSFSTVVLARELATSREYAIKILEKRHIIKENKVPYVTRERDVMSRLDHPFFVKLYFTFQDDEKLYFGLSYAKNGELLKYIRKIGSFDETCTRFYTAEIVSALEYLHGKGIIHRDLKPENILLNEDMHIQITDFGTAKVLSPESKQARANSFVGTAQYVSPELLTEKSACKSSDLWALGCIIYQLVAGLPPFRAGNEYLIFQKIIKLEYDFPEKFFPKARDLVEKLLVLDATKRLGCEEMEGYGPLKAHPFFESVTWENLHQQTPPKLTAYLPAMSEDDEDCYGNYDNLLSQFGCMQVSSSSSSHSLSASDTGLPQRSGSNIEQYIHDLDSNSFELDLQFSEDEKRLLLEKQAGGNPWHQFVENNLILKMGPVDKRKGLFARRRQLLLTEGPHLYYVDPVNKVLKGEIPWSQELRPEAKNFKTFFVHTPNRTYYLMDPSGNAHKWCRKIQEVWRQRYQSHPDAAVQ
UniProt P53350, whole entry: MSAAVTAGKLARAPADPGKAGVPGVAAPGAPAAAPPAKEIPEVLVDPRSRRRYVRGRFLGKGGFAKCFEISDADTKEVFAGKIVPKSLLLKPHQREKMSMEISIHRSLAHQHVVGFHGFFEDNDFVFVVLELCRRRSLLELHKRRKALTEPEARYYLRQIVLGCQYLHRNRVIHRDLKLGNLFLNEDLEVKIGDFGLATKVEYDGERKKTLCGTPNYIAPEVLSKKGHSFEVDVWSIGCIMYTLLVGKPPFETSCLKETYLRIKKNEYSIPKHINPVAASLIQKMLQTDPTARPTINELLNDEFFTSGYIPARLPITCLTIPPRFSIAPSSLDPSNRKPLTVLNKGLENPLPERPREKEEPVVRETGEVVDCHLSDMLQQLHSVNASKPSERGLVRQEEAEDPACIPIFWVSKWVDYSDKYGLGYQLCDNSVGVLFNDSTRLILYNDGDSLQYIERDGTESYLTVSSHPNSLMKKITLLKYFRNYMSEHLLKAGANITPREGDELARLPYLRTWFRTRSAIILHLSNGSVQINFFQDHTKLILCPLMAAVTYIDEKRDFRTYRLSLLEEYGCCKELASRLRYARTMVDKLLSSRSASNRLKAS
UniProt Q13131: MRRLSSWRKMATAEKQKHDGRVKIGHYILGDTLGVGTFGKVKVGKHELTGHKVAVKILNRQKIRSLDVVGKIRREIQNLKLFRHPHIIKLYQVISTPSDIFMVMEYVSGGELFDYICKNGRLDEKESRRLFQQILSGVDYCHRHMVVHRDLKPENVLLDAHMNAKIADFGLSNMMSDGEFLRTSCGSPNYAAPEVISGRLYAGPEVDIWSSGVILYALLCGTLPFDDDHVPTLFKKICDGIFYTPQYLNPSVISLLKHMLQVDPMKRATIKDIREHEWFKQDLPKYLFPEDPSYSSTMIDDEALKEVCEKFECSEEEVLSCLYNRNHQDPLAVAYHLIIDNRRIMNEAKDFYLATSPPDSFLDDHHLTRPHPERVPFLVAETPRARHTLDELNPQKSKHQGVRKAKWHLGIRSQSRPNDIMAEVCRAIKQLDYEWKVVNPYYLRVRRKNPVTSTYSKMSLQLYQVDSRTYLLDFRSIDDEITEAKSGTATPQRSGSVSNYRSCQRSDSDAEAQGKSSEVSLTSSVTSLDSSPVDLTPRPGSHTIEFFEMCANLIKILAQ
UniProt Q05397, whole entry, looked up: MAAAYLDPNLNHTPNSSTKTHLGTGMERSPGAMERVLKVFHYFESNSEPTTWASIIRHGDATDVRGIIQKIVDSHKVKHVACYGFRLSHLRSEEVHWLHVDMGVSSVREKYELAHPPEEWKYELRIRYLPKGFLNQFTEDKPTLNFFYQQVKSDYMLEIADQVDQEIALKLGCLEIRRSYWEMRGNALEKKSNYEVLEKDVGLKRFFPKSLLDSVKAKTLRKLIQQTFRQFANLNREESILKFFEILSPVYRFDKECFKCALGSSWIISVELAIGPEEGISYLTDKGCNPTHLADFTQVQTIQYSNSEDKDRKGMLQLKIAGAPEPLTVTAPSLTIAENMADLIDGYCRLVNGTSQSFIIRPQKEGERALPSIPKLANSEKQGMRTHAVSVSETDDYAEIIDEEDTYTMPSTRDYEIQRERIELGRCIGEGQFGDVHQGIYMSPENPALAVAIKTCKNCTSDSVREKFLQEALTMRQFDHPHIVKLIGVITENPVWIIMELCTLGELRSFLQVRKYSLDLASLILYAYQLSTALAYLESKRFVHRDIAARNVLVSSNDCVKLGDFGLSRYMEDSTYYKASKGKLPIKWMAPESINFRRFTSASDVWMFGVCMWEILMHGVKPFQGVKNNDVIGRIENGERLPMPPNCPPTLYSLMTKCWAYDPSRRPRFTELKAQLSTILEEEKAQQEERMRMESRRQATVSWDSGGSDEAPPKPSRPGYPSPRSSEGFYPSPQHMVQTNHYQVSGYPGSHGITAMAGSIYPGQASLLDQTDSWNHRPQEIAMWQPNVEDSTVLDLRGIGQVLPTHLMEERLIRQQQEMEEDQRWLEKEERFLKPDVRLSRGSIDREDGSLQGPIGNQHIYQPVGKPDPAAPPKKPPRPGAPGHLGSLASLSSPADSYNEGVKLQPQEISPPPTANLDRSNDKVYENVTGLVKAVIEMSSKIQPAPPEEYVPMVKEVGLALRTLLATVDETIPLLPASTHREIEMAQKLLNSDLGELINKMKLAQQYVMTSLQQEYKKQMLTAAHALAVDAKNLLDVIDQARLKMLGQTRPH
UniProt Q9BRS2: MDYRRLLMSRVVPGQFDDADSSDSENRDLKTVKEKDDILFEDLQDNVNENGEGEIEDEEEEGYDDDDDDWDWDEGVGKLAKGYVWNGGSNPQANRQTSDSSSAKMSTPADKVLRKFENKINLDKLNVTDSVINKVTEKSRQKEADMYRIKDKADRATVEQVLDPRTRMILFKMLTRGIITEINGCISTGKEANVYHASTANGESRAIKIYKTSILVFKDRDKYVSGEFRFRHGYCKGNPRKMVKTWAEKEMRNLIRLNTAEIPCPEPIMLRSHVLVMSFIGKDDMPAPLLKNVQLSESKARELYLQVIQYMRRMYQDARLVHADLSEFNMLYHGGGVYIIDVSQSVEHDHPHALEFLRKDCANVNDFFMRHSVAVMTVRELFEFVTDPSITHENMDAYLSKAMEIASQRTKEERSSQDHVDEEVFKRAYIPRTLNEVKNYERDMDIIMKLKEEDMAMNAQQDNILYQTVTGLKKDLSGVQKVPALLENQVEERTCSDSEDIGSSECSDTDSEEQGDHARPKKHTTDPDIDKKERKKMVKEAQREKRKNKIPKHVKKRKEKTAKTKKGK
UniProt Q13546: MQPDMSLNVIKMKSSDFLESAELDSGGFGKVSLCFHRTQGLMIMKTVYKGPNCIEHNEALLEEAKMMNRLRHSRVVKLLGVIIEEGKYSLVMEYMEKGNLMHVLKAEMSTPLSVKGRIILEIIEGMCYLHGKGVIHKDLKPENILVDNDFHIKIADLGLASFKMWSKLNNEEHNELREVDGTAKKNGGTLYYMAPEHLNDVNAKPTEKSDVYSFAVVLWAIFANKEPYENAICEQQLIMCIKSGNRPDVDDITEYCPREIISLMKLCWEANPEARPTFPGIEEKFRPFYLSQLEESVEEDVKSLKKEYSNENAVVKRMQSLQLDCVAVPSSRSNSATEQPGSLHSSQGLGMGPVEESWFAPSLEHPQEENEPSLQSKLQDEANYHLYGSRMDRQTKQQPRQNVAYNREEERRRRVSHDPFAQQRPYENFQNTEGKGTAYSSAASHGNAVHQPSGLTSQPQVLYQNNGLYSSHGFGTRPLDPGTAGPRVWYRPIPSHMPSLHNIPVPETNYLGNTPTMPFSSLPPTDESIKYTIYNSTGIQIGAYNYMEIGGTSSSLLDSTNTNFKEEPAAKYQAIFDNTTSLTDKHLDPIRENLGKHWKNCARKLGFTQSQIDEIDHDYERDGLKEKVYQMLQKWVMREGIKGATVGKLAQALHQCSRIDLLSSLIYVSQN
UniProt Q01974, whole entry: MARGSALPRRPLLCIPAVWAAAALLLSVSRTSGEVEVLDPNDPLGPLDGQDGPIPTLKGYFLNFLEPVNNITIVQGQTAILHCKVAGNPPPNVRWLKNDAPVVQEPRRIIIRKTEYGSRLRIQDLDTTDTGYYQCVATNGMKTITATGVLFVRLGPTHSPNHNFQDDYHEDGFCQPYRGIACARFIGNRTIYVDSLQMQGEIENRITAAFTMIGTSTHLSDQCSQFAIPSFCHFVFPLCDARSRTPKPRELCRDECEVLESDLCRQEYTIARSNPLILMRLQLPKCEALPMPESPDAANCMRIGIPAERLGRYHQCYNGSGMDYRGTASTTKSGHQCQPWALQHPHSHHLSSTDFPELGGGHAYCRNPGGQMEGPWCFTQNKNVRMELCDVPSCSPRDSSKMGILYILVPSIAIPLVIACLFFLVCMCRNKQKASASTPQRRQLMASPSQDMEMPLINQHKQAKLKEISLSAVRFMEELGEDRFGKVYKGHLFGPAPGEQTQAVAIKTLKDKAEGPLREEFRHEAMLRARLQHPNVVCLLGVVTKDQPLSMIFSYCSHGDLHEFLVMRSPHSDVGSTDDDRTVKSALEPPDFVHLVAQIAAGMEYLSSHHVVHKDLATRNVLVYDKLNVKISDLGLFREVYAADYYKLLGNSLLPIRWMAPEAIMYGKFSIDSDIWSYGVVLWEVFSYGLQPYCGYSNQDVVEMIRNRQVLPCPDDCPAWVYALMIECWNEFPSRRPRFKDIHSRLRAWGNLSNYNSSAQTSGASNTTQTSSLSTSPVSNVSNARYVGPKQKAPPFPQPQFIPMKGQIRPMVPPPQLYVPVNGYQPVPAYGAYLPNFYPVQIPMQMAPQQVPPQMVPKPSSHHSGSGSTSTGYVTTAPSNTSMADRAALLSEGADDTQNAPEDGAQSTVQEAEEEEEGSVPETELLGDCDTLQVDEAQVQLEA
UniProt Q9NYA1, whole entry: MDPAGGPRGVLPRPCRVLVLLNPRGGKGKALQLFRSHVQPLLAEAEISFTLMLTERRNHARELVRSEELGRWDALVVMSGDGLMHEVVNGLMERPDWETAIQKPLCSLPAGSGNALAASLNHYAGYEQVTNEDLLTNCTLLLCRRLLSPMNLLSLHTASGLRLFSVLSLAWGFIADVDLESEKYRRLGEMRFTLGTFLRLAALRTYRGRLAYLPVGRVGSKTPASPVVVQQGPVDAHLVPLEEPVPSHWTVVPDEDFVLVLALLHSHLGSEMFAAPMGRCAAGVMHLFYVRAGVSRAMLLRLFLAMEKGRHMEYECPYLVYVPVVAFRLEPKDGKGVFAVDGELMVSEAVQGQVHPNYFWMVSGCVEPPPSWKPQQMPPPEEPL
UniProt Q9Y6E0: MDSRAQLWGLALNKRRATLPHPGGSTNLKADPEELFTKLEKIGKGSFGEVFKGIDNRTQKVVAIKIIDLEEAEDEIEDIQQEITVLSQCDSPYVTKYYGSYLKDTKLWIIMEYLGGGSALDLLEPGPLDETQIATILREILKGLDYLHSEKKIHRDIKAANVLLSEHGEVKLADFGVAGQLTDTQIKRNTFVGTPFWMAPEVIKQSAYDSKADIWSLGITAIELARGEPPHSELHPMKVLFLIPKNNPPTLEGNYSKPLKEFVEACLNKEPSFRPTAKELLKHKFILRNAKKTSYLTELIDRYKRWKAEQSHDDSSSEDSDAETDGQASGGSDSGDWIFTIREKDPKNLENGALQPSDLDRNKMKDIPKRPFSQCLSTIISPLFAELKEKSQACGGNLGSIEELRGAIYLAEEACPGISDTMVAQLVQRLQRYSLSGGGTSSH

Tests used:
Experiment in all cases: kinase-Nluc reporter destabilization hit call (1 = scored as downregulated) (binary); higher = compound decreases kinase abundance
Conditions in all cases: K562; 2-18 h
[1] = biological target: PDPK1 (UniProt O15530)
[2] = biological target: PIK4CA (UniProt P42356)
[3] = biological target: PIK4CB (UniProt Q9UBF8)
[4] = biological target: PLK1 (UniProt P53350)
[5] = biological target: PRKAA1 (UniProt Q13131)
[6] = biological target: PRKCA (UniProt P17252)
[7] = biological target: PTK2 (UniProt Q05397)
[8] = biological target: PTK2B (UniProt Q14289)
[9] = biological target: RAF1 (UniProt P04049)
[10] = biological target: RAF1_S257L (clone: RAF1_mut) (UniProt P04049)
[11] = biological target: RET (UniProt P07949)
[12] = biological target: RET_M918T (clone: RET_mut) (UniProt P07949)
[13] = biological target: RIOK1 (UniProt Q9BRS2)
[14] = biological target: RIPK1 (UniProt Q13546)
[15] = biological target: RIPK2 (UniProt O43353)
[16] = biological target: ROR2 (UniProt Q01974)
[17] = biological target: RPS6KA1 (UniProt Q15418)
[18] = biological target: SPHK1 (UniProt Q9NYA1)
[19] = biological target: SRC (UniProt P12931)
[20] = biological target: STK24 (UniProt Q9Y6E0)

SMILES	kinase-Nluc reporter destabilization hit call [1]	kinase-Nluc reporter destabilization hit call [2]	kinase-Nluc reporter destabilization hit call [3]	kinase-Nluc reporter destabilization hit call [4]	kinase-Nluc reporter destabilization hit call [5]	kinase-Nluc reporter destabilization hit call [6]	kinase-Nluc reporter destabilization hit call [7]	kinase-Nluc reporter destabilization hit call [8]	kinase-Nluc reporter destabilization hit call [9]	kinase-Nluc reporter destabilization hit call [10]	kinase-Nluc reporter destabilization hit call [11]	kinase-Nluc reporter destabilization hit call [12]	kinase-Nluc reporter destabilization hit call [13]	kinase-Nluc reporter destabilization hit call [14]	kinase-Nluc reporter destabilization hit call [15]	kinase-Nluc reporter destabilization hit call [16]	kinase-Nluc reporter destabilization hit call [17]	kinase-Nluc reporter destabilization hit call [18]	kinase-Nluc reporter destabilization hit call [19]	kinase-Nluc reporter destabilization hit call [20]
NC(=O)c1ccc2[nH]ccc2c1 (10 µM)	inactive: 0	inactive: 0	inactive: 0	inactive: 0	inactive: 0	inactive: 0	inactive: 0	inactive: 0	inactive: 0	inactive: 0	inactive: 0	inactive: 0	inactive: 0	inactive: 0	inactive: 0	inactive: 0	inactive: 0	inactive: 0	inactive: 0	inactive: 0
Cc1cc2ncc(-c3ccc(O)c(O)c3)nc2cc1C [Tyrphostin AG1433] (10 µM)	inactive: 0	inactive: 0	inactive: 0	inactive: 0	inactive: 0	inactive: 0	inactive: 0	inactive: 0	inactive: 0	inactive: 0	inactive: 0	inactive: 0	inactive: 0	inactive: 0	active: 1	inactive: 0	inactive: 0	inactive: 0	inactive: 0	inactive: 0
Cc1cc(Nc2ncnc3ccc(NC4=NC(C)(C)CO4)cc23)ccc1Oc1ccn2ncnc2c1 [Tucatinib] (2.5 µM)	inactive: 0	inactive: 0	inactive: 0	inactive: 0	inactive: 0	inactive: 0	inactive: 0	inactive: 0	inactive: 0	inactive: 0	inactive: 0	inactive: 0	inactive: 0	inactive: 0	inactive: 0	inactive: 0	inactive: 0	inactive: 0	inactive: 0	inactive: 0
CCOc1ccc2cc(-c3nn(CC4CCN(C)CC4)c4ncnc(N)c34)ccc2n1 (10 µM)	inactive: 0	inactive: 0	inactive: 0	inactive: 0	inactive: 0	inactive: 0	inactive: 0	inactive: 0	inactive: 0	inactive: 0	inactive: 0	inactive: 0	inactive: 0	inactive: 0	inactive: 0	inactive: 0	inactive: 0	inactive: 0	inactive: 0	inactive: 0
FC(F)(F)c1ccc(CNc2ccc(Cc3c[nH]c4ncccc34)cn2)cc1 (10 µM)	inactive: 0	inactive: 0	inactive: 0	inactive: 0	inactive: 0	inactive: 0	inactive: 0	inactive: 0	inactive: 0	inactive: 0	inactive: 0	inactive: 0	inactive: 0	inactive: 0	inactive: 0	inactive: 0	inactive: 0	inactive: 0	inactive: 0	inactive: 0
COc1ccc(-c2ccc3c(N4CCOCC4)nc(N4C[C@@H](C)O[C@@H](C)C4)nc3n2)cc1CO (2.5 µM)	inactive: 0	inactive: 0	inactive: 0	inactive: 0	inactive: 0	inactive: 0	inactive: 0	inactive: 0	inactive: 0	inactive: 0	inactive: 0	inactive: 0	inactive: 0	inactive: 0	inactive: 0	inactive: 0	inactive: 0	inactive: 0	inactive: 0	inactive: 0
Cn1cc(-c2ccc3c(c2)CCN3C(=O)Cc2cccc(C(F)(F)F)c2)c2c(N)ncnc21 (2.5 µM)	inactive: 0	inactive: 0	inactive: 0	inactive: 0	inactive: 0	inactive: 0	inactive: 0	inactive: 0	inactive: 0	inactive: 0	inactive: 0	inactive: 0	inactive: 0	inactive: 0	inactive: 0	inactive: 0	inactive: 0	inactive: 0	inactive: 0	inactive: 0
Nc1nc(F)nc2c1ncn2[C@@H]1O[C@H](CO)[C@@H](O)[C@@H]1O [Fludarabine] (10 µM)	inactive: 0	inactive: 0	inactive: 0	inactive: 0	inactive: 0	inactive: 0	inactive: 0	inactive: 0	inactive: 0	inactive: 0	inactive: 0	inactive: 0	inactive: 0	inactive: 0	inactive: 0	inactive: 0	inactive: 0	inactive: 0	inactive: 0	inactive: 0
Cn1cc(-c2ccc3nnc(Sc4ccc5ncccc5c4)n3n2)cn1 (10 µM)	inactive: 0	inactive: 0	inactive: 0	inactive: 0	inactive: 0	inactive: 0	inactive: 0	inactive: 0	inactive: 0	inactive: 0	inactive: 0	inactive: 0	inactive: 0	inactive: 0	inactive: 0	inactive: 0	inactive: 0	inactive: 0	inactive: 0	inactive: 0
COc1cccc(OC)c1C(=O)OCc1cc(O)ccc1O[C@@H]1O[C@H](CO)[C@@H](O)[C@H](O)[C@H]1O [Curculigoside] (10 µM)	inactive: 0	inactive: 0	inactive: 0	inactive: 0	inactive: 0	inactive: 0	inactive: 0	inactive: 0	inactive: 0	inactive: 0	inactive: 0	inactive: 0	inactive: 0	inactive: 0	inactive: 0	inactive: 0	inactive: 0	inactive: 0	inactive: 0	inactive: 0
O=C(N/N=C/c1coc2ccccc2c1=O)c1cccnc1 (10 µM)	inactive: 0	inactive: 0	inactive: 0	inactive: 0	inactive: 0	inactive: 0	inactive: 0	inactive: 0	inactive: 0	inactive: 0	inactive: 0	inactive: 0	inactive: 0	inactive: 0	inactive: 0	inactive: 0	inactive: 0	inactive: 0	inactive: 0	inactive: 0
NCCNS(=O)(=O)c1cccc2c(Cl)cccc12 [A-3 (hydrochloride)] (10 µM)	inactive: 0	inactive: 0	inactive: 0	inactive: 0	inactive: 0	inactive: 0	inactive: 0	inactive: 0	inactive: 0	inactive: 0	inactive: 0	inactive: 0	inactive: 0	inactive: 0	inactive: 0	inactive: 0	inactive: 0	inactive: 0	inactive: 0	inactive: 0
CS(=O)(=O)Nc1cc(-c2ccc3ncnc(Nc4ccc(F)c(Cl)c4)c3c2)cnc1Cl (2.5 µM)	inactive: 0	inactive: 0	inactive: 0	inactive: 0	inactive: 0	inactive: 0	inactive: 0	inactive: 0	inactive: 0	inactive: 0	inactive: 0	inactive: 0	inactive: 0	inactive: 0	inactive: 0	inactive: 0	inactive: 0	inactive: 0	inactive: 0	inactive: 0
Oc1cc(O)c2cc(O)c(-c3cc(O)c(O)c(O)c3)[o+]c2c1 [Delphinidin (chloride)] (10 µM)	inactive: 0	inactive: 0	inactive: 0	inactive: 0	inactive: 0	inactive: 0	inactive: 0	inactive: 0	inactive: 0	inactive: 0	inactive: 0	inactive: 0	inactive: 0	inactive: 0	inactive: 0	inactive: 0	inactive: 0	inactive: 0	inactive: 0	inactive: 0
CCS(=O)(=O)c1ncc(Cl)c(C(=O)N(Cc2ccc(Cl)cc2)Cc2ccco2)n1 (2.5 µM)	inactive: 0	inactive: 0	inactive: 0	inactive: 0	inactive: 0	inactive: 0	inactive: 0	inactive: 0	inactive: 0	inactive: 0	inactive: 0	inactive: 0	inactive: 0	inactive: 0	inactive: 0	inactive: 0	inactive: 0	inactive: 0	inactive: 0	inactive: 0
Cc1ccccc1-c1c2nccc(-c3ccc(F)cc3F)c2cc[n+]1[O-] (10 µM)	inactive: 0	inactive: 0	inactive: 0	inactive: 0	inactive: 0	inactive: 0	inactive: 0	inactive: 0	inactive: 0	inactive: 0	inactive: 0	inactive: 0	inactive: 0	inactive: 0	inactive: 0	inactive: 0	inactive: 0	inactive: 0	inactive: 0	inactive: 0
Cc1cccc(Oc2cnc(=O)[nH]c2)c1 [Tolimidone] (10 µM)	inactive: 0	inactive: 0	inactive: 0	inactive: 0	inactive: 0	inactive: 0	inactive: 0	inactive: 0	inactive: 0	inactive: 0	inactive: 0	inactive: 0	inactive: 0	inactive: 0	inactive: 0	inactive: 0	inactive: 0	inactive: 0	inactive: 0	inactive: 0

In a second layout: 2 of the compounds above
SMILES | kinase-Nluc reporter destabilization hit call [1] | kinase-Nluc reporter destabilization hit call [2] | kinase-Nluc reporter destabilization hit call [3] | kinase-Nluc reporter destabilization hit call [4] | kinase-Nluc reporter destabilization hit call [5] | kinase-Nluc reporter destabilization hit call [6] | kinase-Nluc reporter destabilization hit call [7] | kinase-Nluc reporter destabilization hit call [8] | kinase-Nluc reporter destabilization hit call [9] | kinase-Nluc reporter destabilization hit call [10] | kinase-Nluc reporter destabilization hit call [11] | kinase-Nluc reporter destabilization hit call [12] | kinase-Nluc reporter destabilization hit call [13] | kinase-Nluc reporter destabilization hit call [14] | kinase-Nluc reporter destabilization hit call [15] | kinase-Nluc reporter destabilization hit call [16] | kinase-Nluc reporter destabilization hit call [17] | kinase-Nluc reporter destabilization hit call [18] | kinase-Nluc reporter destabilization hit call [19] | kinase-Nluc reporter destabilization hit call [20]
FC(F)(F)c1ccc(CNc2ccc(Cc3c[nH]c4ncccc34)cn2)cc1 (10 µM) | inactive: 0 | inactive: 0 | inactive: 0 | inactive: 0 | inactive: 0 | inactive: 0 | inactive: 0 | inactive: 0 | inactive: 0 | inactive: 0 | inactive: 0 | inactive: 0 | inactive: 0 | inactive: 0 | inactive: 0 | inactive: 0 | inactive: 0 | inactive: 0 | inactive: 0 | inactive: 0
CCS(=O)(=O)c1ncc(Cl)c(C(=O)N(Cc2ccc(Cl)cc2)Cc2ccco2)n1 (2.5 µM) | inactive: 0 | inactive: 0 | inactive: 0 | inactive: 0 | inactive: 0 | inactive: 0 | inactive: 0 | inactive: 0 | inactive: 0 | inactive: 0 | inactive: 0 | inactive: 0 | inactive: 0 | inactive: 0 | inactive: 0 | inactive: 0 | inactive: 0 | inactive: 0 | inactive: 0 | inactive: 0
